# Source: publication PMC12040169 (PLOS Biology, 2025)
# Some of the results follow.
# System: T1, CTL2-GFP (C. trachomatis L2/434/Bu, GFP-expressing)
# T1 construct: L2/434/Bu, GFP-expressing
# Parameters: species or system HeLa; Intracellular C. trachomatis growth in HeLa cells, bulk GFP fluorescence relative to DMSO
# Settings: bulk GFP, single well; 28.5 h, 10 µM; inhibitor
row,Compound,% of control remaining
1,Cc1cc(NC(=O)CCc2c(C)nc(N3CCOCC3)[nH]c2=O)no1 [CBK305636],120.142%
2,N#Cc1cccc(CN2CCC(Cc3ccccc3)CC2)c1 [CBK126380],127.861%
3,COC(=O)c1ccccc1NC(=O)Nc1ccc(N2CCOCC2)c2nonc12 [CBK266830],224.411%
4,CC1CCN(S(=O)(=O)c2ccc(NC(=O)CCn3c(=O)oc4ccccc43)cc2)CC1 [CBK268040],129.278%
5,Cc1cc(NC(=O)c2cc(C)[nH]n2)c2ccccc2n1 [CBK116260],146.457%
6,CCOC(=O)Cn1nnc(-c2ccc(Cl)cc2)n1 [CBK069596],110.978%
7,CCN(CC)CCN1CCN(c2cncc(-c3cccc(N)c3)n2)CC1 [CBK065751],168.271%
8,O=C(O)c1ccc(S(=O)(=O)N(CC2CC=CCC2)CC2CCCO2)cc1 (stereo not drawn) [CBK286685],125.324%
9,CC(=O)Nc1cccc(-c2cnc(N)c(NCc3cccnc3)n2)c1 [CBK063562],159.537%
10,O=C(NC(n1cnc2c(N3CCCCC3)ncnc21)C(Cl)(Cl)Cl)c1ccccc1 (stereo not drawn) [CBK261038],62.7276%
11,COc1cc(CNn2cnnc2S)ccc1OCC(N)=O [CBK265877],100%
12,c1coc(-c2nccnc2NCCc2c[nH]c3ccccc23)c1 [CBK037316],154.613%
13,CC(=O)c1cccc(-n2c(CCC(=O)O)ccc2-c2ccc(Br)cc2)c1 [CBK131888],121.521%
14,O=c1[nH]nc2c(SC3CCCCC3)nccn12 [CBK288471],102.057%
15,CNC(=O)CN1CCN(c2cc(C#N)ccc2C(F)(F)F)CC1=O [CBK306441],134.069%
16,C1CN=C(SCCCCSC2=NCCCN2)NC1 [CBK278223B],119.023%
17,CC(C)n1c(CN2CCOCC2)nc2c1c(=O)n(C)c(=O)n2C [CBK306201],120.856%
18,Nc1nc(C2CC(N)C2)cc(N2CCC(Oc3ccccc3Cl)CC2)n1 (stereo not drawn) [CBK307356],56.6571%
19,O=C(Nc1cccnc1)N1CCN(Cc2ccccc2)CC1 [CBK155663],114.806%
20,Cc1ccc(C2CCCN2C(=O)c2cccn(CC(=O)NC3CCCCC3)c2=O)cc1C (stereo not drawn) [CBK286009],118.627%
21,CC(=O)Nc1ccc(S(=O)(=O)N2CCN(c3ccc([N+](=O)[O-])c(N4CCOCC4)c3)CC2)cc1 [CBK264764],111.069%
22,Cc1ccc(OCc2nnc(SCC(=O)c3ccc(Br)cc3)n2N)cc1 [CBK266482],147.521%
23,COc1ccc(C(C)C)cc1-c1cnc2cccnc2c1N [CBK081211],102.659%
24,CC(=O)Nc1ccc(S(=O)(=O)N2CCN(S(=O)(=O)N3CCCCCC3)CC2)cc1 [CBK268983],133.226%
25,Cc1ccc(O)c(NC(=S)NC(=O)COc2ccccc2)c1 [CBK264373],100%
26,Fc1ccccc1/C=N/Nc1nccnc1Cl [CBK261711],81.1531%

row,Compound,% of control remaining
1,O=C(c1cccs1)N1CCC[C@H]1[C@H](O)c1nccs1 [CBK284285],101.977%
2,CC(C)(C)OC(=O)N1CCCN(c2ccc(S(=O)(=O)c3ccccc3)c([N+](=O)[O-])c2)CC1 [CBK138502],78.5405%
3,CCOc1cc(/C=C2\SC(=N)NC2=O)cc(Cl)c1O [CBK262955],100%
4,Cn1c(C(=O)O)ccc1S(=O)(=O)NCc1ccco1 [CBK113686],89.823%
5,CC(=O)N1C[C@@H](c2cccc(C)c2)[C@@H]2CN(Cc3cccnc3)CC[C@@H]21 [CBK283368],138.156%
6,COc1ccccc1CC(=O)Nc1ncccc1OCCCC#N [CBK304952],92.4936%
7,CC(=O)Oc1ccc(NC(=O)CC2Nc3cc(C)c(C)cc3NC2=O)cc1 (stereo not drawn) [CBK263088],93.4629%
8,Cc1cnc(Nc2cccc(C3CCCN3C(=O)CCOc3ccccc3C)n2)s1 (stereo not drawn) [CBK285972],101.174%
9,COc1ccc(CCC(=O)N2CCCC2c2ccc(Cc3ccccc3F)cn2)cc1 (stereo not drawn) [CBK285992],99.5494%
10,COCCn1ccnc1C1CCN(C(=O)Cc2ccc(O)c(F)c2)CC1 [CBK306649],143.172%
11,CN(C)C(=O)c1cc(Br)cnc1NCCCn1ccnc1 [CBK076378],87.4802%
12,CCOc1nnc(CN(CCC(N)=O)c2ccc(F)cc2)s1 [CBK305536],132.832%
13,COc1ccc(S(=O)(=O)N2CCN(Cc3ccc4c(c3)OCO4)CC2)c(Cl)c1Cl [CBK074433],106.009%
14,CN1CCCC1CCOc1ncccc1OCc1ccccc1 (stereo not drawn) [CBK036313],133.436%
15,CC(C)Cn1c(-c2ccc(F)cc2)cnc1SC(C)C(=O)NC(N)=O (stereo not drawn) [CBK295635],124.589%
16,COc1ccc(C)cc1NC(=O)c1cnc2n(c1=O)CCS2 [CBK287383],124.209%
17,CC(Oc1ccccc1)C(=O)Nc1ccccc1NC(=O)c1ccco1 (stereo not drawn) [CBK269636],129.853%
18,CCCN1CC(NS(=O)(=O)c2cc(-n3cccn3)ccc2OC)CC1=O (stereo not drawn) [CBK307285],101.809%
19,CCn1nc(C)c(-c2cncn2CC(C)N2CCCCC2)c1C (stereo not drawn) [CBK281808],130.06%
20,O=S(=O)(c1ccc(C(F)(F)F)cc1Cl)N1CCCN(Cc2cccc3c2OCO3)CC1 [CBK063067],116.898%
21,O=C1CC(c2ccccc2)c2c(c3ccccc3[nH]c2=O)O1 (stereo not drawn) [CBK288237],95.7653%
22,CCCc1nnc(SCC(=O)Nc2cccc(C(F)(F)F)c2)n1N [CBK028004],102.217%
23,CN(C)c1ccc(-c2nccnc2NS(=O)(=O)c2ccccc2C(F)(F)F)cc1 [CBK050801],96.7077%
24,Cc1c(NC(=O)CSc2nncn2C)ccc2nsnc12 [CBK269418],80.4338%
25,Cc1cc(C)c2c(N)c(-c3ccncc3)sc2n1 [CBK288189],125.787%

# Looked up above:
# Entry of `O=C(c1cccs1)N1CCC[C@H]1[C@H](O)c1nccs1` [CBK284285] under % of control remaining: 101.977%
# Entry of `Cn1c(C(=O)O)ccc1S(=O)(=O)NCc1ccco1` [CBK113686] under % of control remaining: 89.823%
# Entry of `CC(Oc1ccccc1)C(=O)Nc1ccccc1NC(=O)c1ccco1` (stereo not drawn) [CBK269636] under % of control remaining: 129.853%
# Entry of `CCCN1CC(NS(=O)(=O)c2cc(-n3cccn3)ccc2OC)CC1=O` (stereo not drawn) [CBK307285] under % of control remaining: 101.809%
